Data: patent publication US10265403B2, “Cyclic peptide” (priority 2013, dated 2019)
At least one peptide structure holds a part that was inferred or is arguable (an end, a ring closure or a residue).

What was measured:
Human dermal fibroblasts [1] = assay: Cell adhesion, proliferation and viability on coated substrates (PrestoBlue, Vybrant MTT, CyQUANT); assay type: cell-based; conditions: serum-free media, days 1, 4 and 8, 50 μL peptide 100 μM or protein 500 μg/mL
Method: Human dermal fibroblasts (Invitrogen, UK) were maintained in Medium 106 supplemented with low serum growth supplement (2% v/v) and antibiotics (10 μg/mL gentamicin; 0.25 μg/mL amphotericin B) in […] culture flasks. The cells were incubated at 37° C., 5% CO2 and 95% air humidity. At 70-80% confluency cells were washed with PBS to remove the unattached cells and then adhered cells were trypsinised (trypsin/EDTA 0.025:0.01%) followed by trypsin neutraliser (all from Invitrogen, UK). The harvested cells (of passages 3 to 5) were seeded for subsequent cellular analysis. […]
Cell proliferation rates and viability were determined by PrestoBlue®, Vybrant® MTT and CyQUANT® assays on day 1, 4 and 8 (all from Life Technologies, UK).
PrestoBlue® reagent is supplied as a 10× solution and added to each well by diluting (1×) in the serum-free culture medium. […] The fluorescence of each well was measured with a microplate reader (BMG Labtech, Germany), with 544 nm excitation and 590 nm emission filters. Standard calibration curves were generated by plotting measured fluorescence values versus cell numbers. […]
CyQUANT® GR dye was prepared in a cell-lysis buffer (according to the manufacturer's protocols) prior to each experiment by diluting this stock solution (400×) into the buffer. […] A standard calibration curve was generated by plotting measured fluorescence values versus cell numbers. […]

Human dermal fibroblasts [2] = assay: Filopodia-rich protrusions, actin staining and confocal microscopy; assay type: cell-based; conditions: cells grown for 24 hours on coated substrates
Human dermal fibroblasts [3] = assay: Impedance measurements (xCELLigence) of cells on coated electrodes; assay type: cell-based; conditions: serum-depleted medium
Method: Comparative impedance measurements using cell-electrode interfaces, which allow evaluating changes in effective impedance (resistance) to applied alternating current, provided further support for different cell proliferation patterns that were measured continuously in real time. Typically, cell attachments to electrode surfaces give impedance increases, whereas changes in cell morphology (cell rounding-up and detachment) cause impedance drops. Resistance traces that can correspond to different events including changes in cellular morphology, patterning and growth rates were recorded as a function of time, with cells seeded in a serum-depleted medium to avoid interferences by serum, which can modulate same signaling pathways for cell adhesion.
Impedance measurements were performed using an xCELLigence system according to the manufacturer's protocols (Roche, UK; ACEA Biosciences, USA). Each electrode array comprises 16 wells, each of which was first coated with assembled SaNet and protein solutions and background measurements were carried out prior to cell seeding. […] The electrical impedance of each well was automatically recorded every 5 min for the first 24 hours and then every 30 min till the end, and were normalised and expressed using the proprietary software as normalised cell index. Bacterial adhesions were measured every 5 min for over 15 hours. […]

B. subtilis = assay: Impedance measurements (xCELLigence) of bacterial adhesion on coated electrodes; assay type: cell-based; conditions: over 15 hours
P. aeruginosa = P. aeruginosa colonisation study on substrates; assay type: cell-based; conditions: incubated on substrate over 10 days, fluorescence micrographs
[4] = Linear dichroism spectroscopy with synthetic membranes; assay type: binding; conditions: lipid:peptide 100:1, 30 μM peptide, 10 mM phosphate buffer, pH 7.4
[5] = as above; assay type: binding; conditions: DLPC/DLPG 75%/25%, lipid:peptide 100:1, 30 μM peptide, pH 7.4

cyclo(AALEGGGEIAALEQEIAALEYKIAALKGGGKIAALKQKIAALKQEI) [SaNet]
cell adhesion and proliferation (total cells / total viable cells) (Human dermal fibroblasts [1]): strongly promoted cell adhesion and proliferation
numbers of filopodia in comparison to the other substrates (Human dermal fibroblasts [2]): significantly (p<0.001) higher numbers of filopodia
normalised impedance after second medium inoculation (Human dermal fibroblasts [3]): a gradually ascending phase in impedance
normalised impedance of B. subtilis (B. subtilis): remained in a negative phase with no signs of positive recovery
bacterial growth on substrate (P. aeruginosa): inhibits bacterial growth for at least two days
orientation on membranes (LD spectra) [4]: did not specifically orient
orientation on membranes (LD spectra) [5]: characteristic of the on-surface orientation of SaNet helices
